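Reporter-gene test of PMP22 expression in a rat Schwann cell line, read by firefly luciferase light output 24 hours after treatment. Seventeen-point concentration series from about 0.00016 to 58 µM. Potency is the AC50 from a fitted inhibition curve, the concentration giving half the maximal fitted effect; a lower value means a more potent inhibitor. Calls follow the activity score from curve class and fit: scores 40–100 are active, 1–39 inconclusive, 0 inactive; all rows here are inconclusive.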

Values are in µM. Every entry below has the call inconclusive. Only part of the assay is shown, chiefly results filed as inconclusive. Potencies fitted to partial, single-point or poorly fitting curves are rough. Activity scores are not listed here.

* CN1CCC(=C2c3ccccc3CC(=O)c3sccc32)CC1 : potency 12.82 µM (inhibitor, partial curve)
* COc1ccc(C(=O)N2CCN(CC(=O)N3CCOCC3)CC2)cc1 : potency 0.2557 µM (inhibitor, full curve, poor fit)
* COC(=O)C1=C(C)NC(C)=C(C(=O)OCCN2CCN(C(c3ccccc3)c3ccccc3)CC2)C1c1cccc([N+](=O)[O-])c1 (stereo not shown) : potency 25.57 µM (inhibitor, partial curve, poor fit)
* O=C(Nc1ccc([N+](=O)[O-])cc1Cl)c1cc(Cl)ccc1O : potency 16.14 µM (inhibitor, full curve, poor fit)
* CCCCCCCCCCOc1cc2c(=O)c(C(=O)OCC)c[nH]c2cc1OCC : potency 0.0907 µM (inhibitor, full curve, poor fit)
* CC1(C)C2CC[C@]1(C)[C@@H](O)C2 : potency 14.38 µM (inhibitor, full curve, poor fit)
* NCCNc1cccc2ccccc12 : potency 36.13 µM (inhibitor, single point)
* OCc1cc(C(O)CNCCCCCCOCCCCc2ccccc2)ccc1O (stereo not shown) : potency 4.053 µM (inhibitor, partial curve, poor fit)
* Clc1cccc(SC2CCNCC2)n1 : potency 40.53 µM (inhibitor, single point)
* Cc1c2oc3c(C)ccc(C(=O)N[C@@H]4C(=O)N[C@H](C(C)C)C(=O)N5CCC[C@H]5C(=O)N(C)CC(=O)N(C)[C@@H](C(C)C)C(=O)O[C@@H]4C)c3nc-2c(C(=O)N[C@@H]2C(=O)N[C@H](C(C)C)C(=O)N3CCC[C@H]3C(=O)N(C)CC(=O)N(C)[C@@H](C(C)C)C(=O)O[C@@H]2C)c(N)c1=O : potency 9.074 µM (inhibitor, full curve, poor fit)
* CC(C)(C)c1ccc(C(O)CCCN2CCC(C(O)(c3ccccc3)c3ccccc3)CC2)cc1 (stereo not shown) : potency 40.53 µM (inhibitor, single point)
* CC(C)(C)NC[C@@H](O)COc1ccccc1C1CCCC1 : potency 15.47 µM (inhibitor, single point)
* O=C(O)c1ccccc1Nc1cccc(C(F)(F)F)c1 : potency 36.13 µM (inhibitor, partial curve)
* CCCCCCCCCCCCCCCC(=O)OC[C@H](O)[C@H]1OC[C@@H](O)[C@@H]1O : potency 28.7 µM (inhibitor, partial curve, poor fit)
* CC(C)CCC(=O)OC1CCC2C3CCC4=CC(=O)CC[C@]4(C)C3CC[C@]12C (stereo partly shown) : potency 25.57 µM (inhibitor, partial curve, poor fit)
* CO[C@H]1/C=C/O[C@@]2(C)Oc3c(C)c(O)c4c(O)c(c5c(c4c3C2=O)NC2(CCN(CC(C)C)CC2)N=5)=NC(=O)/C(C)=C\C=C\[C@H](C)[C@H](O)[C@@H](C)[C@@H](O)[C@@H](C)[C@H](OC(C)=O)[C@@H]1C : potency 32.2 µM (inhibitor, partial curve, poor fit)
* CCOC(=O)c1cc(-c2ccccc2)nc2ccc(C)cc12 : potency 8.087 µM (inhibitor, single point)
* CNC1CCc2cc(OC)c(OC)c(OC)c2-c2ccc(OC)c(=O)cc21 (stereo not shown) : potency 0.0809 µM (inhibitor, full curve, poor fit)
* C=CCN1C[C@H](C)N([C@H](c2ccc(C(=O)N(CC)CC)cc2)c2cccc(OC)c2)C[C@H]1C : potency 0.3613 µM (inhibitor, partial curve, poor fit)
* CC1=NS(=O)(=O)c2cc(Cl)ccc2N1 : potency 4.053 µM (inhibitor, full curve, poor fit)
* O=C(O)c1cc(=O)c2c3nc4ccccc4oc-3cc(=O)c2[nH]1 : potency 9.074 µM (inhibitor, full curve, poor fit)
* CCCCCCCC/C=C\CCCCCCCC(=O)O : potency 32.2 µM (inhibitor, single point)
* CC(=O)OC1CN2CCC1CC2 (stereo not shown) : potency 3.612 µM (inhibitor, partial curve, poor fit)
* CC(C)(C)NCC(O)c1cc(Cl)c(N)c(Cl)c1 (stereo not shown) : potency 4.053 µM (inhibitor, full curve, poor fit)
* O=C1OCCN1/N=C/c1ccc([N+](=O)[O-])o1 : potency 18.11 µM (inhibitor, full curve, poor fit)
* CC[C@H](c1ccc(O)cc1)[C@@H](CC)c1ccc(O)cc1 : potency 12.29 µM (inhibitor, partial curve)
* CCOC(=O)C1=C(C)NC(C)=C(C(=O)OC)C1c1cccc([N+](=O)[O-])c1 (stereo not shown) : potency 0.0045 µM (inhibitor, full curve, poor fit)
* CCCCCCCCOc1ccc(C(=O)c2ccccc2)c(O)c1 : potency 36.13 µM (inhibitor, single point)
* CC(=O)Oc1ccc(C2(c3ccc(OC(C)=O)cc3)C(=O)Nc3ccccc32)cc1 : potency 36.13 µM (inhibitor, single point)
* CCN(CC)C(=S)S : potency 16.14 µM (inhibitor, partial curve, poor fit)
* COc1ccc(S(=O)(=O)N2c3ccc(Cl)cc3[C@](O)(c3ccccc3Cl)[C@@H]2C(=O)N2CCC[C@H]2C(N)=O)cc1OC : potency 36.13 µM (inhibitor, single point)
* C=C1CC[C@H](O)C/C1=C/C=C1\CCC[C@]2(C)[C@@H]([C@H](C)CCCC(C)(C)O)CC[C@@H]12 : potency 20.31 µM (inhibitor, partial curve, poor fit)
* CCOC(=O)C1=C(C)NC(C)=C(C(=O)OCC)C1c1ccccc1C=CC(=O)OC(C)(C)C : potency 36.13 µM (inhibitor, single point)
* CN1CCN(C2Cc3ccccc3Sc3ccc(Cl)cc32)CC1 (stereo not shown) : potency 40.53 µM (inhibitor, single point)
* CCCN[C@@H](C)C(=O)Nc1c(C)csc1C(=O)OC : potency 0.9762 µM (inhibitor, full curve, poor fit)

The last 2 entries again:

Result for CN1CCN(C2Cc3ccccc3Sc3ccc(Cl)cc32)CC1 (stereo not shown) was potency 40.53 µM (inhibitor, single point).
Result for CCCN[C@@H](C)C(=O)Nc1c(C)csc1C(=O)OC was potency 0.9762 µM (inhibitor, full curve, poor fit).

Source: PubChem BioAssay AID624032 (NCATS, 2012).